Assay results as given in publication PMC9613458.
No constants are given. Whether binding was seen depends on the method and setting. In cells and extracts the contact can be indirect. Some results given as binding are weak or reduced against the parent protein; the word gives no strength. Where a sequence is shown, tags or fusion partners need not be part of it.

Sequences of proteins named here, by UniProt entry; tags and fusion partners are left off.
UniProt Q9UJV9: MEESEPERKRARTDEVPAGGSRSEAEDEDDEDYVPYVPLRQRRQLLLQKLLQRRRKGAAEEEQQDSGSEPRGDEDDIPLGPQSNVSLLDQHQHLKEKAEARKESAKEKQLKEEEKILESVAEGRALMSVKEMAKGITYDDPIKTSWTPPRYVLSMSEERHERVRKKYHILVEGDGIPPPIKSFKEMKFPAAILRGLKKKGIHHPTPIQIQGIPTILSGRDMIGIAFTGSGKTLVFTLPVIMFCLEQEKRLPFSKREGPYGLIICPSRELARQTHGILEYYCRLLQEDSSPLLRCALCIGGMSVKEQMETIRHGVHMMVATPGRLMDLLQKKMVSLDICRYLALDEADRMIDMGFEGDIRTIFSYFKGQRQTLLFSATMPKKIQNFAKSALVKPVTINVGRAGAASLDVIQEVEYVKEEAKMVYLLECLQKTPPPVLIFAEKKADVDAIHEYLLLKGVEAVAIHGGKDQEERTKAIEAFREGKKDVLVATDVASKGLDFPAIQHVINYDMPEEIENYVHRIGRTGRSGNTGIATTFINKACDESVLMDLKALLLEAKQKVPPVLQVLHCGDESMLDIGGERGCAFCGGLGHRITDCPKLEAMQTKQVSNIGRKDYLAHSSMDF
UniProt Q99459: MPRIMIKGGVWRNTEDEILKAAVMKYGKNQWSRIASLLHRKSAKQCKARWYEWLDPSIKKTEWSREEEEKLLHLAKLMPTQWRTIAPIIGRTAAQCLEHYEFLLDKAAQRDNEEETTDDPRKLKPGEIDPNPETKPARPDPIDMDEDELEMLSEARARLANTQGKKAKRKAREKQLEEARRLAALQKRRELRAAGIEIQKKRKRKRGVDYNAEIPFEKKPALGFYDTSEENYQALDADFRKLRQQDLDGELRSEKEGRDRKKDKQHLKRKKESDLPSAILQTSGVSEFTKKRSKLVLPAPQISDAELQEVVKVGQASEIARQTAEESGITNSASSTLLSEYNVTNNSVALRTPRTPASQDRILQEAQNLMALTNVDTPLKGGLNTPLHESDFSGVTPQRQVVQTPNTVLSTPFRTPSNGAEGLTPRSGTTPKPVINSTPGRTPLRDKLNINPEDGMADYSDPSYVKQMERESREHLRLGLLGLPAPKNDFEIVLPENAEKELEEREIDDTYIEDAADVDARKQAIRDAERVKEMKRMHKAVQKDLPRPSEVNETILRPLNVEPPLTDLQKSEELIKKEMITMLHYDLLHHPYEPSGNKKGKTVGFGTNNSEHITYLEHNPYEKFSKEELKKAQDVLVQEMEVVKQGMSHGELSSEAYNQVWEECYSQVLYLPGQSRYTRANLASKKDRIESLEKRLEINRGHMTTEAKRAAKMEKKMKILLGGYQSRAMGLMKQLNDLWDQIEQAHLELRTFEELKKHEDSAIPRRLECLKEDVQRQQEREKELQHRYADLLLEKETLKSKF

Biological target: FLAG-tagged DDX41 (human) (UniProt Q9UJV9)
Assay: co-IP; Myc-tagged NTC components expressed with FLAG-tagged DDX41 in HEK293FT cells; immunoprecipitation with anti-FLAG antibody; blots with anti-FLAG, anti-Myc

Row | Molecule | binding
1 | Myc-tagged CDC5L (from UniProt Q99459 1-802) | binds
2 | Myc-tagged Yju2 (CCDC94) (protein, UniProt Q9BW85 1-323) MSERKVLNKYYPPDFDPSKIPKLKLPKDRQYVVRLMAPFNMRCKTCGEYIYKGKKFNARKETVQNEVYLGLPIFRFYIKCTRCLAEITFKTDPENTDYTMEHGATRNFQAEKLLEEEEKRVQKEREDEELNNPMKVLENRTKDSKLEMEVLENLQELKDLNQRQAHVDFEAMLRQHRLSEEERRRQQQEEDEQETAALLEEARKRRLLEDSDSEDEAAPSPLQPALRPNPTAILDEAPKPKRKVEVWEQSVGSLGSRPPLSRLVVVKKAKADPDCSNGQPQAAPTPGAPQNRKEANPTPLTPGASSLSQLGAYLDSDDSNGSN | binds
3 | Myc-tagged CWC22 (protein, UniProt Q9HCG8 1-908) MKSSVAQIKPSSGHDRRENLNSYQRNSSPEDRYEEQERSPRDRDYFDYSRSDYEHSRRGRSYDSSMESRNRDREKRRERERDTDRKRSRKSPSPGRRNPETSVTQSSSAQDEPATKKKKDELDPLLTRTGGAYIPPAKLRMMQEQITDKNSLAYQRMSWEALKKSINGLINKVNISNISIIIQELLQENIVRGRGLLSRSVLQAQSASPIFTHVYAALVAIINSKFPQIGELILKRLILNFRKGYRRNDKQLCLTASKFVAHLINQNVAHEVLCLEMLTLLLERPTDDSVEVAIGFLKECGLKLTQVSPRGINAIFERLRNILHESEIDKRVQYMIEVMFAVRKDGFKDHPIILEGLDLVEEDDQFTHMLPLEDDYNPEDVLNVFKMDPNFMENEEKYKAIKKEILDEGDTDSNTDQDAGSSEEDEEEEEEEGEEDEEGQKVTIHDKTEINLVSFRRTIYLAIQSSLDFEECAHKLLKMEFPESQTKELCNMILDCCAQQRTYEKFFGLLAGRFCMLKKEYMESFEGIFKEQYDTIHRLETNKLRNVAKMFAHLLYTDSLPWSVLECIKLSEETTTSSSRIFVKIFFQELCEYMGLPKLNARLKDETLQPFFEGLLPRDNPRNTRFAINFFTSIGLGGLTDELREHLKNTPKVIVAQKPDVEQNKSSPSSSSSASSSSESDSSDSDSDSSDSSSESSSEESDSSSISSHSSASANDVRKKGHGKTRSKEVDKLIRNQQTNDRKQKERRQEHGHQETRTERERRSEKHRDQNSSGSNWRDPITKYTSDKDVPSERNNYSRVANDRDQEMHIDLENKHGDPKKKRGERRNSFSENEKHTHRIKDSENFRRKDRSKSKEMNRKHSGSRSDEDRYQNGAERRWEKSSRYSEQSRESKKNQDRRREKSPAKQK | binds
4 | Myc-tagged CWC25 (protein, UniProt Q9NXE8 1-425) MGGGDLNLKKSWHPQTLRNVEKVWKAEQKHEAERKKIEELQRELREERAREEMQRYAEDVGAVKKKEEKLDWMYQGPGGMVNRDEYLLGRPIDKYVFEKMEEKEAGCSSETGLLPGSIFAPSGANSLLDMASKIREDPLFIIRKKEEEKKREVLNNPVKMKKIKELLQMSLEKKEKKKKKEKKKKHKKHKHRSSSSDRSSSEDEHSAGRSQKKMANSSPVLSKVPGYGLQVRNSDRNQGLQGPLTAEQKRGHGMKNHSRSRSSSHSPPRHASKKSTREAGSRDRRSRSLGRRSRSPRPSKLHNSKVNRRETGQTRSPSPKKEVYQRRHAPGYTRKLSAEELERKRQEMMENAKWREEERLNILKRHAKDEEREQRLEKLDSRDGKFIHRMKLESASTSSLEDRVKRNIYSLQRTSVALEKNFMKR | binds
5 | Myc-tagged CWC27 (protein, UniProt Q6UX04 1-472) MSNIYIQEPPTNGKVLLKTTAGDIDIELWSKEAPKACRNFIQLCLEAYYDNTIFHRVVPGFIVQGGDPTGTGSGGESIYGAPFKDEFHSRLRFNRRGLVAMANAGSHDNGSQFFFTLGRADELNNKHTIFGKVTGDTVYNMLRLSEVDIDDDERPHNPHKIKSCEVLFNPFDDIIPREIKRLKKEKPEEEVKKLKPKGTKNFSLLSFGEEAEEEEEEVNRVSQSMKGKSKSSHDLLKDDPHLSSVPVVESEKGDAPDLVDDGEDESAEHDEYIDGDEKNLMRERIAKKLKKDTSANVKSAGEGEVEKKSVSRSEELRKEARQLKRELLAAKQKKVENAAKQAEKRSEEEEAPPDGAVAEYRREKQKYEALRKQQSKKGTSREDQTLALLNQFKSKLTQAIAETPENDIPETEVEDDEGWMSHVLQFEDKSRKVKDASMQDSDTFEIYDPRNPVNKRRREESKKLMREKKERR | binds weakly
